This note sets out measurements from PubChem BioAssay AID256 (DTP/NCI, 2004).

The list shows only some results of the screen, not a fair sample: it is rich in T/C values a quarter to a half above the control, in often repeated tests (any T/C) and in doses without a T/C. Other doses and runs of a compound stand elsewhere. T/C gives the treated animals as a percentage of the vehicle group. Some entries give survivors of the animals treated and no T/C: the source holds a T/C of zero for them, seemingly a mark for toxic or unscored doses. Some survivor counts are full or nearly so, which does not show that the dose was tolerated: the source hardly ever lists a survival T/C far under the control, and the zero likely stands for such cases as well. Counts of survivors are from the toxicity check (mostly the fifth day) where no day follows; animals may have died later. Schedule codes are those of the source, read here as Q, the interval in days (D) or hours (H), X, the number of doses. Some entries were tested several times; the values are given in rising order. Where survival is the endpoint, the PubChem record calls one and a half times the control and up active, and a quarter to a half above the control has no call in these data; cut-offs in other NCI protocols can differ. Some T/C values are followed by the survivors on the day toxicity was checked, most often the fifth; without a count, all were alive then. Signs of the kind (2×) say how often a value occurs here.

The subject of the assay is CD2F1 mice, L1210 leukemia ip, survival T/C. Kind of assay: NCI In Vivo Anticancer Drug Screen. Data for tumor model L1210 Leukemia (intraperitoneal) in CD2F1 (CDF1) mice. The following applies: higher T/C = longer survival. In short, it runs like this: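 Tumor-bearing mice (transplanted tumor) were split into treated and vehicle control groups, and the measured endpoint of each treated group was divided by that of its vehicle controls.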

Consider `CC1CCC(NC(=O)N(CCCl)N=O)CC1` (stereo unspecified), for which the T/C (T/C endpoint: mean survival time, dose: 5.0 mg/kg/injection, schedule: Q01DX001 (sc), vehicle: saline) is 96, 97, 103, 104 (2×), 110, 114 % of control; the T/C (T/C endpoint: mean survival time, dose: 6.25 mg/kg/injection, schedule: Q01DX001 (ip), vehicle: distilled water + Tween-80) is 127 % of control; the T/C (T/C endpoint: mean survival time, dose: 6.25 mg/kg/injection, schedule: Q01DX001 (ip), vehicle: other, evaluated on day 30) was 108, 113, 115, 118, 125, 127 (2×), 128, 130, 131 (3×), 135 (2×), 145, 158, 165 % of control; the T/C (T/C endpoint: mean survival time, dose: 6.25 mg/kg/injection, schedule: Q01DX001 (ip), vehicle: other, evaluated on day 35) is 125 % of control; the T/C (T/C endpoint: mean survival time, dose: 6.25 mg/kg/injection, schedule: Q01DX001 (ip), vehicle: other, evaluated on day 40) was 128 and 189 % of control; the T/C (T/C endpoint: mean survival time, dose: 6.25 mg/kg/injection, schedule: Q01DX001 (ip), vehicle: other, evaluated on day 45) is 137 % of control. Further, the T/C by setting is: (T/C endpoint: mean survival time, dose: 6.25 mg/kg/injection, schedule: Q01DX001 (ip), vehicle: saline, evaluated on day 30) 98 and 106 % of control; (T/C endpoint: mean survival time, dose: 6.25 mg/kg/injection, schedule: Q01DX001 (ip), vehicle: saline, evaluated on day 60) 125 and 133 % of control; (T/C endpoint: mean survival time, dose: 8.0 mg/kg/injection, schedule: Q01DX001 (ip), vehicle: other) 134 % of control; (T/C endpoint: mean survival time, dose: 8.0 mg/kg/injection, schedule: Q01DX001 (ip), vehicle: saline + alcohol) 147 % of control; (T/C endpoint: mean survival time, dose: 10.0 mg/kg/injection, schedule: Q01DX001 (sc), vehicle: saline) 94, 107, 118, 126, 133, 140, 142 % of control; (T/C endpoint: mean survival time, dose: 12.5 mg/kg/injection, schedule: Q01DX001 (ip), vehicle: other, evaluated on day 30) 144, 149, 150, 153, 157, 166, 168, 172, 174, 177, 187, 232, 264, 265, 310, 314, 319 % of control. Also, the T/C was 219 % of control (T/C endpoint: mean survival time, dose: 12.5 mg/kg/injection, schedule: Q01DX001 (ip), vehicle: other, evaluated on day 35); 260 and 327 % of control (T/C endpoint: mean survival time, dose: 12.5 mg/kg/injection, schedule: Q01DX001 (ip), vehicle: other, evaluated on day 40); 176 % of control (T/C endpoint: mean survival time, dose: 12.5 mg/kg/injection, schedule: Q01DX001 (ip), vehicle: other, evaluated on day 45); 134 % of control (T/C endpoint: mean survival time, dose: 12.5 mg/kg/injection, schedule: Q01DX001 (ip), vehicle: saline with Tween-80); 100 and 104 % of control (T/C endpoint: mean survival time, dose: 12.5 mg/kg/injection, schedule: Q01DX001 (ip), vehicle: saline, evaluated on day 30); 183 and 275 % of control (T/C endpoint: mean survival time, dose: 12.5 mg/kg/injection, schedule: Q01DX001 (ip), vehicle: saline, evaluated on day 60). The T/C (T/C endpoint: mean survival time, dose: 20.0 mg/kg/injection, schedule: Q01DX001 (sc), vehicle: saline) is given as 93, 141, 171, 179, 263, 289, 398 % of control; the T/C (T/C endpoint: mean survival time, dose: 25.0 mg/kg/injection, schedule: Q01DX001 (ip), vehicle: other, evaluated on day 30) is 258, 265, 277, 292, 313, 314, 329 (2×), 332, 333 (2×), 337, 340, 348, 357, 375 % of control (2×); the T/C (T/C endpoint: mean survival time, dose: 25.0 mg/kg/injection, schedule: Q01DX001 (ip), vehicle: other, evaluated on day 35) was 315 % of control; the T/C (T/C endpoint: mean survival time, dose: 25.0 mg/kg/injection, schedule: Q01DX001 (ip), vehicle: other, evaluated on day 40) is 306 and 454 % of control; the T/C (T/C endpoint: mean survival time, dose: 25.0 mg/kg/injection, schedule: Q01DX001 (ip), vehicle: other, evaluated on day 45) is 511 % of control; the T/C (T/C endpoint: mean survival time, dose: 25.0 mg/kg/injection, schedule: Q01DX001 (ip), vehicle: saline, evaluated on day 30) was 101 and 106 % of control. The T/C by setting is: (T/C endpoint: mean survival time, dose: 25.0 mg/kg/injection, schedule: Q01DX001 (ip), vehicle: saline, evaluated on day 60) 683 and 740 % of control; (T/C endpoint: mean survival time, dose: 30.0 mg/kg/injection, schedule: Q01DX001 (sc), vehicle: saline) 95, 211, 270, 511, 514, 529, 663 % of control; (T/C endpoint: mean survival time, dose: 40.0 mg/kg/injection, schedule: Q01DX001 (sc), vehicle: saline) 88, 101, 182, 527, 569, 585, 663 % of control; (T/C endpoint: mean survival time, dose: 50.0 mg/kg/injection, schedule: Q01DX001 (ip), vehicle: other, evaluated on day 30) 102, 143, 184, 193, 203, 214, 224, 227, 238, 284, 295, 309, 315, 331, 333, 348 [5 of 6 alive], 375 % of control; (T/C endpoint: mean survival time, dose: 50.0 mg/kg/injection, schedule: Q01DX001 (ip), vehicle: other, evaluated on day 35) 219 % of control; (T/C endpoint: mean survival time, dose: 50.0 mg/kg/injection, schedule: Q01DX001 (ip), vehicle: other, evaluated on day 40) 302 and 314 % of control. Also, the T/C runs as follows: (T/C endpoint: mean survival time, dose: 50.0 mg/kg/injection, schedule: Q01DX001 (ip), vehicle: other, evaluated on day 45) 234 % of control; (T/C endpoint: mean survival time, dose: 50.0 mg/kg/injection, schedule: Q01DX001 (ip), vehicle: saline, evaluated on day 30) 108 and 114 % of control; (T/C endpoint: mean survival time, dose: 50.0 mg/kg/injection, schedule: Q01DX001 (ip), vehicle: saline, evaluated on day 60) 680 and 740 % of control; (T/C endpoint: mean survival time, dose: 64.0 mg/kg/injection, schedule: Q01DX001 (ip), vehicle: saline + alcohol) 128 % of control [5 of 6 alive]; (T/C endpoint: median survival time, dose: 5.0 mg/kg/injection, schedule: Q01DX001 (ip), vehicle: other) 111, 116, 120, 136 % of control; (T/C endpoint: median survival time, dose: 6.25 mg/kg/injection, schedule: Q01DX001 (ip), vehicle: other) 125 % of control. Besides, the T/C is, setting by setting: (T/C endpoint: median survival time, dose: 8.6 mg/kg/injection, schedule: Q04DX002 (ip), vehicle: saline + alcohol) 137 % of control; (T/C endpoint: median survival time, dose: 10.0 mg/kg/injection, schedule: Q01DX001 (ip), vehicle: other) 144, 158, 161, 214 % of control; (T/C endpoint: median survival time, dose: 12.5 mg/kg/injection, schedule: Q01DX001 (ip), vehicle: saline) 137 % of control; (T/C endpoint: median survival time, dose: 20.0 mg/kg/injection, schedule: Q01DX001 (ip), vehicle: other) 198, 226, 268, 273 % of control; (T/C endpoint: median survival time, dose: 24.0 mg/kg/injection, schedule: Q01DX001 (ip), vehicle: saline with Tween-80) 135 % of control; (T/C endpoint: median survival time, dose: 40.0 mg/kg/injection, schedule: Q01DX001 (ip), vehicle: other) 315, 322, 397, 713 % of control. Further, the survivor count is 6 of 6 (T/C endpoint: mean survival time, dose: 50.0 mg/kg/injection, schedule: Q01DX001 (ip), vehicle: distilled water + Tween-80); 4 of 6 (T/C endpoint: mean survival time, dose: 100.0 mg/kg/injection, schedule: Q01DX001 (ip), vehicle: other); 5 of 6 (T/C endpoint: mean survival time, dose: 128.0 mg/kg/injection, schedule: Q01DX001 (ip), vehicle: other).

`O=C(O)C1C2OC(C(Br)C2Br)C1C(=O)O` (stereo unspecified): under “T/C endpoint: mean survival time, dose: 200.0 mg/kg/injection, schedule: Q01DX009 (ip), vehicle: saline”, the survivor count was 3 of 6.

For the compound `O=C(NCCCCCCCCCCNC(=O)Nc1ccc(C2=NCCCN2)cc1)Nc1ccc(C2=NCCCN2)cc1`, for the setting “T/C endpoint: mean survival time, dose: 12.0 mg/kg/injection, schedule: Q01DX009 (ip), vehicle: saline”, the T/C was 130 % of control. Moreover, the survivor count (T/C endpoint: mean survival time, dose: 29.0 mg/kg/injection, schedule: Q01DX009 (ip), vehicle: saline) is 0 of 6.

For `CCOS(=O)(=O)c1ccc(N)c([N+](=O)[O-])c1`, for the setting “T/C endpoint: mean survival time, dose: 400.0 mg/kg/injection, schedule: Q01DX009 (ip), vehicle: Klucel (hydroxypropylcellulose) (HPC)”, the survivor count is 3 of 6.

Regarding `CCOc1cc(C(F)(F)F)nc2c3c(cc(OC)c12)CCCN3CC`, the survivor count (T/C endpoint: mean survival time, dose: 200.0 mg/kg/injection, schedule: Q01DX009 (ip), vehicle: saline with Tween-80) is recorded as 2 of 6.

As for `COc1cccc(/C=N/[N+](C)(C)C)c1O`, the survivor count (T/C endpoint: mean survival time, dose: 400.0 mg/kg/injection, schedule: Q01DX001 (ip), vehicle: saline) is 0 of 4.

As for `O=C(O)/C=C/C(=O)c1ccccc1`, where the note is “T/C endpoint: mean survival time, dose: 50.0 mg/kg/injection, schedule: Q04DX003 (ip), vehicle: saline with Tween-80”, the survivor count was 2 of 6.

As to `C=C1C(O)C2(O)OCC34C(CC5C(C)=CC(=O)C(O)C5(C)C23)OC(=O)C(OC(=O)C/C=C/CCCCCCCC)C14` (stereo unspecified), the T/C is, setting by setting: (T/C endpoint: median survival time, dose: 4.0 mg/kg/injection, schedule: Q01DX005 (ip), vehicle: saline + alcohol) 125 % of control; (T/C endpoint: median survival time, dose: 16.0 mg/kg/injection, schedule: Q01DX005 (ip), vehicle: saline + alcohol) 125 [5 of 6 alive] and 137 % of control [5 of 6 alive]. The survivor count reads like this: (T/C endpoint: median survival time, dose: 32.0 mg/kg/injection, schedule: Q01DX005 (ip), vehicle: saline + alcohol) 0 of 6 and 2 of 6; (T/C endpoint: median survival time, dose: 64.0 mg/kg/injection, schedule: Q01DX005 (ip), vehicle: saline + alcohol) 0 of 6.
